Assay in all cases: log2 fold change, soluble protein after heating vs DMSO (PISA); higher = thermal stabilisation; K562 lysate, 10 uM; active = over 0.2 and 3.5 SD of the protein, either way, in both replicates (recomputed)
Compound in assay [1]: C=CC(=O)N1CCC[C@@H](n2nc(-c3ccc(Oc4ccccc4)cc3)c3c(N)ncnc32)C1 [ibrutinib]
The essentials:
(§1)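 To prepare the extract, K562 pellets were dounce-homogenised in PBS pH 7.4 with 1 mM MgCl2, giving crude material at 1 mg/mL protein. This was treated with 10 μM compound for 30 min, then heated in aliquots for 3 min over 48°C-58°C before pooling and addition of NP-40 to 0.5% at 4°C. Centrifugation at 21,000xg for 90 min left soluble protein in the supernatant, which TMTpro 16plex LC-MS/MS quantified with equalised channel sums. Results are log-two fold changes in thermal stability compared with solvent controls, from duplicates.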

The chains behind the UniProt entries cited, without tags or fusion partners. Where a name states a change or a piece, a line headed by the entry shows the natural chain unless it says otherwise.
UniProt Q9BZF3: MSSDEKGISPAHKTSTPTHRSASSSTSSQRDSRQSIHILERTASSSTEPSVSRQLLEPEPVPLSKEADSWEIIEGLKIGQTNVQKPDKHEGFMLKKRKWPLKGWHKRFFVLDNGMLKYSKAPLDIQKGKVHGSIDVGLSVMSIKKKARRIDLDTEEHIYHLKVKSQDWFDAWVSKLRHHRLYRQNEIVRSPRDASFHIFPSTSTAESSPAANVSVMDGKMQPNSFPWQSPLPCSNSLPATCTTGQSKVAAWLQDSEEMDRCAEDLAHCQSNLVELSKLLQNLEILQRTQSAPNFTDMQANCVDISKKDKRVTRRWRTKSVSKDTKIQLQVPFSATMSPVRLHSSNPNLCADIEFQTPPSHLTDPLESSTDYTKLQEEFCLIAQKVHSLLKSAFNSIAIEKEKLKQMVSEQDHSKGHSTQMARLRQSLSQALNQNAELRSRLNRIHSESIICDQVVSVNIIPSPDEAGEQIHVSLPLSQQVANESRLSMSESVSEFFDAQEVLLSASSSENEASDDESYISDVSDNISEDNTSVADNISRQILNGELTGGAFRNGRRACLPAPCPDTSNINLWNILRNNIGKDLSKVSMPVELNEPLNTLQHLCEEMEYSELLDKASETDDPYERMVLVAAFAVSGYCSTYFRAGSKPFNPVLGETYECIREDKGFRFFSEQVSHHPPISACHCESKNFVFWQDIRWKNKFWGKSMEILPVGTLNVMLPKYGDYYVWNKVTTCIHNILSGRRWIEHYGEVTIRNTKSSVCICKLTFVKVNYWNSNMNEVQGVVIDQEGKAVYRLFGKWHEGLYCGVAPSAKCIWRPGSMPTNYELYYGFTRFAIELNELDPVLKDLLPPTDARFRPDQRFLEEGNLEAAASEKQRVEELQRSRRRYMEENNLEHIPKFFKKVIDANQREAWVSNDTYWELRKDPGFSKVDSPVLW
UniProt Q9UNF0: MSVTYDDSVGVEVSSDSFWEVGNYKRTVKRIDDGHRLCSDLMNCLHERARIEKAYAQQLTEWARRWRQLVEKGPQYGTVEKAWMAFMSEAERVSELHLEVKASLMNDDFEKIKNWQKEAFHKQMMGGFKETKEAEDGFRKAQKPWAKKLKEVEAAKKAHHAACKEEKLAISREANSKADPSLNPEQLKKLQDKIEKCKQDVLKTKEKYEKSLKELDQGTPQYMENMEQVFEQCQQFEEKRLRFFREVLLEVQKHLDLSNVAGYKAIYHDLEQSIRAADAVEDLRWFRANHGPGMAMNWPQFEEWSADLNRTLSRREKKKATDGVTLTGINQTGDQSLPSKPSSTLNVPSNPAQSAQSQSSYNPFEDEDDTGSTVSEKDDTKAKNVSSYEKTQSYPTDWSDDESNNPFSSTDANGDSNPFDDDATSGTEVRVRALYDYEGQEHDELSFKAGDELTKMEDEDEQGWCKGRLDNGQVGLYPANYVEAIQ
UniProt P55809: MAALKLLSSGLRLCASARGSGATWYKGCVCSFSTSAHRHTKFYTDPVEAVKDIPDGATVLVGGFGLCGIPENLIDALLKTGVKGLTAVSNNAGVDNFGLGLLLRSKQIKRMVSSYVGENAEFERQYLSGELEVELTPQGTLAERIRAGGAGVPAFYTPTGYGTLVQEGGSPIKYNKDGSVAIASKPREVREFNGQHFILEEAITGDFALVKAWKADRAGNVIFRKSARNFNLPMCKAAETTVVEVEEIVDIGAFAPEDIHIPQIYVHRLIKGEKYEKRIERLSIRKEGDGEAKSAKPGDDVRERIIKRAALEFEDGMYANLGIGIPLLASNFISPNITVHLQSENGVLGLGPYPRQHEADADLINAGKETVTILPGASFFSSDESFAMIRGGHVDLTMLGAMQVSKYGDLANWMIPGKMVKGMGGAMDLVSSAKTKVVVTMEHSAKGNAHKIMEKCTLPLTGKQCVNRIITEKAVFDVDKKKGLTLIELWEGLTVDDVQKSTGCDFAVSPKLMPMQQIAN
UniProt Q5W0B1: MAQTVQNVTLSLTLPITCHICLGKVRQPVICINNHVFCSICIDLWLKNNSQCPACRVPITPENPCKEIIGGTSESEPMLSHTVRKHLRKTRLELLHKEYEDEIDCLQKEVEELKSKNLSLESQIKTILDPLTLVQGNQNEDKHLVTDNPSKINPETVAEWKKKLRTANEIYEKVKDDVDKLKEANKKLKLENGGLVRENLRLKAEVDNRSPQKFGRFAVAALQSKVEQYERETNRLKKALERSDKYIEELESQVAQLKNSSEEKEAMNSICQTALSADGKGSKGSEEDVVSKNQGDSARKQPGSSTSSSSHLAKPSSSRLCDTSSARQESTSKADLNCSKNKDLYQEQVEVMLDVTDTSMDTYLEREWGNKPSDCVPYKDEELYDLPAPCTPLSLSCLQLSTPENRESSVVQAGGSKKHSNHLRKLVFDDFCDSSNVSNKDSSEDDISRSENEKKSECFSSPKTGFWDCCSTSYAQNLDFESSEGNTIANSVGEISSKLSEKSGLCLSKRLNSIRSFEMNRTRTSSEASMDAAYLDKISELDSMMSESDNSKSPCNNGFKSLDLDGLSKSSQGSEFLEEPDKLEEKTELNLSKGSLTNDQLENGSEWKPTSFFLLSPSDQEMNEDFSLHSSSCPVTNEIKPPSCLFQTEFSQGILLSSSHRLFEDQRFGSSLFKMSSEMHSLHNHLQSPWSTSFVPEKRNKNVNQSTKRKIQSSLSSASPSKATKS
UniProt Q9BPZ3: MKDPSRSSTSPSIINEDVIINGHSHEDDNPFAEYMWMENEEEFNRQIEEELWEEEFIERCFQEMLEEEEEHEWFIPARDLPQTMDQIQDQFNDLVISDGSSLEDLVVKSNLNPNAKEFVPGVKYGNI
UniProt Q5SWX8: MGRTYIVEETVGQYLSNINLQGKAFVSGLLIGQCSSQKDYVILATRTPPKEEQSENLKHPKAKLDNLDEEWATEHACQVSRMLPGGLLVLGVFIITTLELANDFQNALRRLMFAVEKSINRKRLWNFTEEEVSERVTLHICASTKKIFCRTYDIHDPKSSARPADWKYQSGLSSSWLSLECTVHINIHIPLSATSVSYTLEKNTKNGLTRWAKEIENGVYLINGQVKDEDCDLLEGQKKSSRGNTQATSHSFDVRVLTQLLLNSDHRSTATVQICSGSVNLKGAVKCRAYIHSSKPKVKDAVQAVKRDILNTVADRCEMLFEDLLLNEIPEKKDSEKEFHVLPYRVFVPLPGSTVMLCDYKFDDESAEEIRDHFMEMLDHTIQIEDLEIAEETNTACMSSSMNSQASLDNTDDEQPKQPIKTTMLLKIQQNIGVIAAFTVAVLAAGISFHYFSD
UniProt Q8NFH3: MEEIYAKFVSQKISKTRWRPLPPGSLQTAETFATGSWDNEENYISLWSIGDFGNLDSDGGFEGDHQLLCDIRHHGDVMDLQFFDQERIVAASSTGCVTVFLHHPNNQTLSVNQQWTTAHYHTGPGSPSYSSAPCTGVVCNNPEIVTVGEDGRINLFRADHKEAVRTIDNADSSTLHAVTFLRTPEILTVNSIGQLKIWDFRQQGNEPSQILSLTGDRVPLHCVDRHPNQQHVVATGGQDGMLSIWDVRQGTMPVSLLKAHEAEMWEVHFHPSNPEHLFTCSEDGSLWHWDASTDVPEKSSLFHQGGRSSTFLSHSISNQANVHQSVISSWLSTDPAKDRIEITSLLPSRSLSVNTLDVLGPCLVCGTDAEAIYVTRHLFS

Compound in assay [2]: CC(=O)c1cnc2ccc(-c3cc(Cl)c(O)c(Cl)c3)nc2c1N[C@H]1CC[C@H](CN(C)C)CC1
The essentials: as §1

Compound in assay [3]: CC(C)(C)Cn1c(N)nc2ccc(-c3[nH]c(C(C)(C)C)nc3-c3ccc(F)cc3)nc21 [ralimetinib]
An outline of the steps:
as §1

Compound in assay [4]: CC(C)(O)CC(=O)NCCn1ccc2ncnc(Nc3ccc(Oc4cccc(C(F)(F)F)c4)c(Cl)c3)c21
An outline of the steps: as §1

Compound in assay [5]: CC(C)C1=C2N=C(C=C(N2N=C1)NCC3=CC=CC=C3)NCCCCCCN
An outline of the steps: as §1

Compound in assay [6]: CC1=C(C(CC(=O)N1)C2=CC=C(C=C2)C(F)(F)F)C(=O)NC3=C(C=C4C(=C3)C=NN4)F
The essentials: as §1

Compound in assay [7]: CC1=C(C2=C(C=C1)C(=O)C3=CC=CC=C3N2CCCN)C
An outline of the steps:
as §1

Compound in assay [8]: CC1=C(C=C(C=C1)NC(=O)C2=CC(=CC=C2)C(C)(C)C#N)NC3=CC4=C(C=C3)N=CN(C4=O)C
The essentials:
as §1

Compound in assay [9]: CC1=C(C=C(C=C1)NC(=O)C2=CC(=CC=C2)N(C)C)NC(=O)C3=CC=C(C=C3)O
An outline of the steps:
as §1

Compound in assay [10]: CC1=CC=C(C=C1)SC2=C3C=C(SC3=CN=C2)C(=O)N
An outline of the steps:
as §1

Compound in assay [11]: CCCS(=O)(=O)Nc1ccc(F)c(C(=O)c2c[nH]c3ncc(-c4ccc(Cl)cc4)cc23)c1F [vemurafenib]
The essentials:
as §1

Compound in assay [12]: CCCS(=O)(=O)Nc1ccc(F)c(C(=O)c2c[nH]c3ncc(Cl)cc23)c1F
An outline of the steps:
as §1

Compound in assay [13]: CCN(CCCOc1ccc2c(Nc3cc(CC(=O)Nc4cccc(F)c4)[nH]n3)ncnc2c1)CCOP(=O)(O)O [barasertib]
An outline of the steps: as §1

Compound in assay [14]: CC[C@@H]1C(=O)N(C)c2cnc(Nc3ccc(C(=O)NC4CCN(C)CC4)cc3OC)nc2N1C1CCCC1
The essentials:
as §1

Compound in assay [15]: CC[C@@H]1C(=O)N(C)c2cnc(Nc3ccc(C(=O)N[C@H]4CC[C@H](N5CCN(CC6CC6)CC5)CC4)cc3OC)nc2N1C(C)C [volasertib]
The essentials:
as §1

Compound in assay [16]: CCn1c(C(=O)N(C2CC2)C2CC2)cc2c3c(ncn3C)c(Nc3cc(C)n(C)n3)nc21
An outline of the steps:
as §1

Compound in assay [17]: CCn1cc(-c2ccnc3[nH]c(-c4cccc(CN(C)C)c4)cc23)c(-c2ccc(NC(=O)N(C)C)cc2)n1
The essentials: as §1

Compound in assay [18]: CN1CCC(CNc2ccc3ncc(-c4cccc(OC(F)(F)F)c4)n3n2)CC1
An outline of the steps: as §1

Compound in assay [19]: CN1CCN(CCOc2cc(OC3CCOCC3)c3c(Nc4c(Cl)ccc5c4OCO5)ncnc3c2)CC1 [saracatinib]
The essentials: as §1

Compound in assay [20]: CN1CCN(c2nc(C3=C(c4c[nH]c5ccccc45)C(=O)NC3=O)c3ccccc3n2)CC1 [sotrastaurin]
An outline of the steps: as §1

The list shows a part of the results.

Consider OSBPL6 isoform 5 (UniProt Q9BZF3), for which the log2 fold change was inactive: 0.118 in assay [1]; inactive: -0.031 in [2]; inactive: 0.23 in assay [3]; inactive: -0.042 in [4]; inactive: 0.098 in assay [5]; inactive: -0.032 in assay [6]. Besides, the log2 fold change was inactive: 0.016 in assay [7]; inactive: 0.015 in assay [8]; inactive: -0.013 in assay [9]; inactive: 0.01 in assay [10]; inactive: -0.026 in assay [11]; inactive: -0.021 in assay [12]. The log2 fold change in assay [13] is inactive: -0.015; in [14], inactive: -0.052; in [15], inactive: -0.072; in [16], inactive: 0.015; in assay [17] it was inactive: -0.004; in assay [18], inactive: 0.084. In addition, the results for the log2 fold change in [19] and in assay [20] were inactive: -0.009 and inactive: -0.035, respectively.
PACSIN2 (UniProt Q9UNF0): the log2 fold change in [1] was inactive: -0.023; in [2], inactive: 0.012; in [3], inactive: 0; in assay [4] it was inactive: 0.002; in assay [5], inactive: -0.012; in assay [6], inactive: -0.003. Further, the log2 fold change in assay [7] is inactive: 0.011; in assay [8] it was inactive: -0.012; in [9], inactive: 0.004; in assay [10], inactive: 0.003; in [11], inactive: -0.017; in assay [12], inactive: 0.008. In addition, the log2 fold change in [13] is inactive: 0.021; in assay [14], inactive: -0.015; in [15] it was inactive: -0.007; in assay [16], inactive: 0.054; in [17] it was inactive: 0.05; in assay [18] it was inactive: -0.043. The values for the log2 fold change in assay [19] and in assay [20] were inactive: -0.013 and inactive: -0.015, respectively.
With OXCT1 (UniProt P55809), the log2 fold change was inactive: -0.005 in assay [1]; inactive: -0.049 in assay [2]; inactive: 0.002 in [3]; inactive: -0.011 in assay [4]; inactive: -0.012 in assay [5]; inactive: -0.018 in [6]. For the same target, the log2 fold change in assay [7] is inactive: 0.01; in assay [8] it was inactive: -0.005; in assay [9], inactive: 0.001; in assay [10], inactive: -0.005; in assay [11] it was inactive: 0.002; in [12], inactive: 0.032. The log2 fold change was inactive: 0.005 in [13]; inactive: 0.018 in assay [14]; inactive: 0.009 in assay [15]; inactive: -0.014 in assay [16]; inactive: 0.011 in [17]; inactive: -0.019 in assay [18]. In addition, the values for the log2 fold change in assay [19] and in assay [20] were inactive: -0.021 and inactive: -0.012, respectively.
Take OBI1 (UniProt Q5W0B1): the log2 fold change is inactive: 0.082 in assay [1]; inactive: 0.027 in [2]; inactive: 0.016 in assay [3]; inactive: -0.071 in assay [4]; inactive: -0.046 in [5]; inactive: 0.041 in assay [6]. The log2 fold change in assay [7] was inactive: -0.054; in [8] it was inactive: 0.036; in [9], inactive: -0.001; in assay [10] it was inactive: 0.005; in assay [11], inactive: -0.125; in assay [12], inactive: -0.02. In addition, the log2 fold change in assay [13] is inactive: 0.165; in assay [14] it was inactive: -0.079; in [15], inactive: -0.126; in [16] it was inactive: 0.04; in [17] it was inactive: 0.104; in [18], inactive: -0.119. In addition, the log2 fold change in [19] is inactive: 0.041; in assay [20], inactive: 0.024.
Consider PAIP2 (UniProt Q9BPZ3), for which the log2 fold change in assay [1] was inactive: 0.145; in [2] it was inactive: 0.012; in [3], inactive: -0.05; in assay [4], inactive: -0.006; in assay [5] it was inactive: 0.006; in [6], inactive: 0.015. Also, the log2 fold change in assay [7] is inactive: 0.028; in assay [8], inactive: 0.01; in assay [9], inactive: -0.003; in assay [10], inactive: -0.008; in assay [11], inactive: 0; in assay [12], inactive: -0.013. Moreover, the log2 fold change was active: 0.272 in assay [13]; inactive: 0.039 in assay [14]; inactive: -0.018 in [15]; inactive: 0.02 in assay [16]; inactive: -0.043 in assay [17]; inactive: -0.001 in assay [18]. Besides, the log2 fold change in [19] is inactive: -0.081; in [20] it was inactive: -0.073.
Take ODR4 (UniProt Q5SWX8): the log2 fold change is inactive: -0.051 in assay [1]; inactive: -0.028 in assay [2]; inactive: 0.054 in assay [3]; inactive: 0.045 in assay [4]; inactive: -0.107 in assay [5]; inactive: 0.009 in assay [6]. The log2 fold change in assay [7] is inactive: 0.023; in assay [8] it was inactive: 0.037; in assay [9], inactive: 0.035; in assay [10], inactive: -0.025; in [11] it was inactive: 0.041; in [12], inactive: -0.033. Also, the log2 fold change in assay [13] is inactive: 0.014; in assay [14], inactive: 0.016; in [15] it was inactive: -0.103; in [16], inactive: 0.015; in assay [17], inactive: 0.107; in assay [18], inactive: -0.095. Further, the log2 fold change was inactive: 0.019 in [19] and inactive: 0.035 in assay [20].
Regarding NUP43 (UniProt Q8NFH3), the log2 fold change in assay [1] is inactive: 0.046; in [2], inactive: -0.006; in assay [3] it was inactive: 0.027; in [4], inactive: -0.013; in assay [5], inactive: 0.009; in [6], inactive: -0.013. Besides, the log2 fold change is inactive: 0 in assay [7]; inactive: 0.011 in assay [8]; inactive: 0.001 in [9]; inactive: -0.014 in [10]; inactive: 0.007 in [11]; inactive: 0.027 in assay [12]. The log2 fold change in assay [13] is inactive: -0.019; in assay [14], inactive: 0.081; in assay [15] it was inactive: 0.009; in assay [16], inactive: -0.036; in assay [17], inactive: -0.099; in [18], inactive: 0.06. In addition, the log2 fold change was inactive: 0.012 in assay [19] and inactive: 0.004 in assay [20].
